For at least one compound, name, drawing or mass did not settle the structure.
System: M. tuberculosis RNA polymerase containing the algU σ factor
Assay: In vitro (cell-free) high-throughput transcription screen with reconstituted RNA polymerase
Format: biochemical
Conditions: rifampicin control at 30 nM

**Q.** Which inhibition of transcription does the source give for `CO[C@H]1/C=C/O[C@@]2(C)Oc3c(C)c(O)c4c(O)c(c(/C=N/N5CCN(C)CC5)c(O)c4c3C2=O)NC(=O)/C(C)=C\C=C\[C@H](C)[C@H](O)[C@@H](C)[C@@H](O)[C@@H](C)[C@H](OC(C)=O)[C@@H]1C` [rifampicin] here?
**A.** 50-75%
